Results taken from paper PMC4774922.

Protein sequences, listed by entry. Tags and fused reporters are not part of them. Lines headed by an entry give the natural chain unless they say otherwise; changes in a name come on top.
UniProt Q9HAU5: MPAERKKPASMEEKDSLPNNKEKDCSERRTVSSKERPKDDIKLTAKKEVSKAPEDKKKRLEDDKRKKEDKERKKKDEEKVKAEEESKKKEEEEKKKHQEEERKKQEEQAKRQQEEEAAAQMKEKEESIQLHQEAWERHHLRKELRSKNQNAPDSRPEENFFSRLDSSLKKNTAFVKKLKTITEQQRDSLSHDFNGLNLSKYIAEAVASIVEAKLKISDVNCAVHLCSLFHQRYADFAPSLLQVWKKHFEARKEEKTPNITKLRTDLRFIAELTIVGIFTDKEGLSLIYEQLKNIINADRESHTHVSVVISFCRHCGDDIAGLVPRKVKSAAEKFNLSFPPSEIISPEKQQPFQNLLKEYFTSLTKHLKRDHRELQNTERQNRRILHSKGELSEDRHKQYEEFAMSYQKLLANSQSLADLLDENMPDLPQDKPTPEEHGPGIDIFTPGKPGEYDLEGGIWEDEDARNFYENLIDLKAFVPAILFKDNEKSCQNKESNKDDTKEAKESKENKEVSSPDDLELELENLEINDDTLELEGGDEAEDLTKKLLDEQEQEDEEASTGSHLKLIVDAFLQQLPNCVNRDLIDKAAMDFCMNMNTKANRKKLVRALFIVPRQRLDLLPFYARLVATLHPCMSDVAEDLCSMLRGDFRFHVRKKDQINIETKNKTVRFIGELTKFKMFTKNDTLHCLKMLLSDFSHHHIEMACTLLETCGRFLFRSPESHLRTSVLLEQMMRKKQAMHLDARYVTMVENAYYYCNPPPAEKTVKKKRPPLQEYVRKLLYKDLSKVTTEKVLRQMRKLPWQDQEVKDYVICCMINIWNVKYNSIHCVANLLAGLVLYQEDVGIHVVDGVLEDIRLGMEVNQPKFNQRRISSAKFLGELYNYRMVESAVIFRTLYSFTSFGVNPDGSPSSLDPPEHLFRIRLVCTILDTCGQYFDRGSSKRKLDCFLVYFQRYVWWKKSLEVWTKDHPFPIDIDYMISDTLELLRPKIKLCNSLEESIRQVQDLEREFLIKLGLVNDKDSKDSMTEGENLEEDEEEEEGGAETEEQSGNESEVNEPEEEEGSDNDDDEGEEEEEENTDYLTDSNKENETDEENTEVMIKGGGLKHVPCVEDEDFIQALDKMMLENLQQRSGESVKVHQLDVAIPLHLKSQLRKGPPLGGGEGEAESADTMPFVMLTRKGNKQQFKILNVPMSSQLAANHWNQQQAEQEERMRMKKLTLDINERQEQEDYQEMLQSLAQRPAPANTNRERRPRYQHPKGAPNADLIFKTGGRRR

Assays:
[1] = molecular target: HA-BirA(R118G)-tagged UPF2, RNAi-resistant (UniProt Q9HAU5); experiment: proximity labelling; BioID: HB*-bait transiently expressed in 293T cells, 50 μM biotin for 16 hours; streptavidin capture; LC-MS/MS; kept: at least two exclusive unique peptides and more than two times the normalized spectrum count of the free HB* control
[2] = molecular target: T1, HA-BirA(R118G)-tagged UPF1, RNAi-resistant (UniProt Q92900); experiment: as above
T1 sequence: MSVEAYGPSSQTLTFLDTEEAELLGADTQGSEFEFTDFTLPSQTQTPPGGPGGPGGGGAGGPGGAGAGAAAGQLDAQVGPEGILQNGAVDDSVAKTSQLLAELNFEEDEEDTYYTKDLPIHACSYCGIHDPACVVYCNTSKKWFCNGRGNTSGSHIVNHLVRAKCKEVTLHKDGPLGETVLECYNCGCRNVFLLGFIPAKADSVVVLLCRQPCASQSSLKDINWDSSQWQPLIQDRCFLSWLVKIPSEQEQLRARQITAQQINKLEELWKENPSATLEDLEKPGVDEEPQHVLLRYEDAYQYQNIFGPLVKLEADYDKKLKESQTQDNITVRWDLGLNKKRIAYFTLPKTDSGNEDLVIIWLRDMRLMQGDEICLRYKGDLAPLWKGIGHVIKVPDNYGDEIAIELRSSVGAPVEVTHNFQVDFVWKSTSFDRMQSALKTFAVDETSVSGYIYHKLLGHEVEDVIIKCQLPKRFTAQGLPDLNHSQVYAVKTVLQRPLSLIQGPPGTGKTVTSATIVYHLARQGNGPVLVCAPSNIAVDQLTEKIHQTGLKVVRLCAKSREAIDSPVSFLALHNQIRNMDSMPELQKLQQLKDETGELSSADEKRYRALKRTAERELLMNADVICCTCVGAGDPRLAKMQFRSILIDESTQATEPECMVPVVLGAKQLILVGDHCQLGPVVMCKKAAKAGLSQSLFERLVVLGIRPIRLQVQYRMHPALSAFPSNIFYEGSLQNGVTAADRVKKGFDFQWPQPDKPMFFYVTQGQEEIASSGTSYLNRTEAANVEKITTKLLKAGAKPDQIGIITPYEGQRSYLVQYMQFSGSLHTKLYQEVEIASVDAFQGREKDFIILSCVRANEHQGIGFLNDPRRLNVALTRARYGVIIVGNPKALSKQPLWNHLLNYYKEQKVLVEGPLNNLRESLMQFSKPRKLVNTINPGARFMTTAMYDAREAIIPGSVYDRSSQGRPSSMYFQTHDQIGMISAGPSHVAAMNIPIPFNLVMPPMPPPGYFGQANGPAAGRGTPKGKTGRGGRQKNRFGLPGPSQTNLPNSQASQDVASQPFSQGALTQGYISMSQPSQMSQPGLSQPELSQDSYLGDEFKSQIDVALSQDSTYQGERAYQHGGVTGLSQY

[3] = molecular target: T2, HA-BirA(R118G)-tagged SMG5, RNAi-resistant (UniProt Q9UPR3); experiment: as above
T2 sequence: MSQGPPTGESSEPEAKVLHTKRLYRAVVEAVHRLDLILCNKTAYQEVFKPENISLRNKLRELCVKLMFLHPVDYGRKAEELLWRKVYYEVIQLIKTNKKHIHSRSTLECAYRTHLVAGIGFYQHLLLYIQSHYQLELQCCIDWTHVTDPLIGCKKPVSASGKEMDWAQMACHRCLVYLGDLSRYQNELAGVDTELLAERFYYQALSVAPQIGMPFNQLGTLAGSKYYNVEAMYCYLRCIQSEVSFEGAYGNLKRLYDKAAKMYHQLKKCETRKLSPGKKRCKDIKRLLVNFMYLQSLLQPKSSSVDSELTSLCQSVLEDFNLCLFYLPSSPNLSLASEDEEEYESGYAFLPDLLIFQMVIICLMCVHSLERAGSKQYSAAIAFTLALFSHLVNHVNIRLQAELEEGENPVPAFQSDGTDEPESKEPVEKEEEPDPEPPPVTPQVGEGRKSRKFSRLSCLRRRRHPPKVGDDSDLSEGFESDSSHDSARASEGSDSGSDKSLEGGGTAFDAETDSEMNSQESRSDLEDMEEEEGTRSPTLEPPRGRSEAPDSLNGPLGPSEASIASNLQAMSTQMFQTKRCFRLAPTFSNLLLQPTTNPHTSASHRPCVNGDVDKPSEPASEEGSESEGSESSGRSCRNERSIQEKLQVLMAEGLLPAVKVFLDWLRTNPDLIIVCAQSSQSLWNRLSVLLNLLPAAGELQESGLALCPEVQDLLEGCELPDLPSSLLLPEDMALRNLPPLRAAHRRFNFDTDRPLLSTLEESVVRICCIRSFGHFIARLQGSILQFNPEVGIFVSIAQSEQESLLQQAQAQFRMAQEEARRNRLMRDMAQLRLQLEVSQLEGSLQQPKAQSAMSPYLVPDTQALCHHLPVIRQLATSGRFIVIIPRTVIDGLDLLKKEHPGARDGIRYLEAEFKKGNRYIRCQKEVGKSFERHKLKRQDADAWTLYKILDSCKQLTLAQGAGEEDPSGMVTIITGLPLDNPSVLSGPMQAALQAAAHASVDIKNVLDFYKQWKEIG

[4] = molecular target: T1, HA-BirA(R118G)-tagged UPF1, RNAi-resistant; experiment: proximity labelling; BioID: HB*-bait transiently expressed in 293T cells at near endogenous levels, 50 μM biotin for 16 hours; biotinylated proteins captured on magnetic streptavidin beads; western blot
[5] = molecular target: T2, HA-BirA(R118G)-tagged SMG5, RNAi-resistant; experiment: as above

Row | Binder | binding [1] | binding [2] | binding [3] | binding [4] | binding [5]
1 | EDC4 (protein, UniProt Q6P2E9 1-1401) MASCASIDIEDATQHLRDILKLDRPAGGPSAESPRPSSAYNGDLNGLLVPDPLCSGDSTSANKTGLRTMPPINLQEKQVICLSGDDSSTCIGILAKEVEIVASSDSSISSKARGSNKVKIQPVAKYDWEQKYYYGNLIAVSNSFLAYAIRAANNGSAMVRVISVSTSERTLLKGFTGSVADLAFAHLNSPQLACLDEAGNLFVWRLALVNGKIQEEILVHIRQPEGTPLNHFRRIIWCPFIPEESEDCCEESSPTVALLHEDRAEVWDLDMLRSSHSTWPVDVSQIKQGFIVVKGHSTCLSEGALSPDGTVLATASHDGYVKFWQIYIEGQDEPRCLHEWKPHDGRPLSCLLFCDNHKKQDPDVPFWRFLITGADQNRELKMWCTVSWTCLQTIRFSPDIFSSVSVPPSLKVCLDLSAEYLILSDVQRKVLYVMELLQNQEEGHACFSSISEFLLTHPVLSFGIQVVSRCRLRHTEVLPAEEENDSLGADGTHGAGAMESAAGVLIKLFCVHTKALQDVQIRFQPQLNPDVVAPLPTHTAHEDFTFGESRPELGSEGLGSAAHGSQPDLRRIVELPAPADFLSLSSETKPKLMTPDAFMTPSASLQQITASPSSSSSGSSSSSSSSSSSLTAVSAMSSTSAVDPSLTRPPEELTLSPKLQLDGSLTMSSSGSLQASPRGLLPGLLPAPADKLTPKGPGQVPTATSALSLELQEVEPLGLPQASPSRTRSPDVISSASTALSQDIPEIASEALSRGFGSSAPEGLEPDSMASAASALHLLSPRPRPGPELGPQLGLDGGPGDGDRHNTPSLLEAALTQEASTPDSQVWPTAPDITRETCSTLAESPRNGLQEKHKSLAFHRPPYHLLQQRDSQDASAEQSDHDDEVASLASASGGFGTKVPAPRLPAKDWKTKGSPRTSPKLKRKSKKDDGDAAMGSRLTEHQVAEPPEDWPALIWQQQRELAELRHSQEELLQRLCTQLEGLQSTVTGHVERALETRHEQEQRRLERALAEGQQRGGQLQEQLTQQLSQALSSAVAGRLERSIRDEIKKTVPPCVSRSLEPMAGQLSNSVATKLTAVEGSMKENISKLLKSKNLTDAIARAAADTLQGPMQAAYREAFQSVVLPAFEKSCQAMFQQINDSFRLGTQEYLQQLESHMKSRKAREQEAREPVLAQLRGLVSTLQSATEQMAATVAGSVRAEVQHQLHVAVGSLQESILAQVQRIVKGEVSVALKEQQAAVTSSIMQAMRSAAGTPVPSAHLDCQAQQAHILQLLQQGHLNQAFQQALTAADLNLVLYVCETVDPAQVFGQPPCPLSQPVLLSLIQQLASDLGTRTDLKLSYLEEAVMHLDHSDPITRDHMGSVMAQVRQKLFQFLQAEPHNSLGKAARRLSLMLHGLVTPSLP | no binding | no binding | binds |  | 
2 | SMG7 (protein, UniProt Q92540 1-1137) MSLQSAQYLRQAEVLKADMTDSKLGPAEVWTSRQALQDLYQKMLVTDLEYALDKKVEQDLWNHAFKNQITTLQGQAKNRANPNRSEVQANLSLFLEAASGFYTQLLQELCTVFNVDLPCRVKSSQLGIISNKQTHTSAIVKPQSSSCSYICQHCLVHLGDIARYRNQTSQAESYYRHAAQLVPSNGQPYNQLAILASSKGDHLTTIFYYCRSIAVKFPFPAASTNLQKALSKALESRDEVKTKWGVSDFIKAFIKFHGHVYLSKSLEKLSPLREKLEEQFKRLLFQKAFNSQQLVHVTVINLFQLHHLRDFSNETEQHTYSQDEQLCWTQLLALFMSFLGILCKCPLQNESQEESYNAYPLPAVKVSMDWLRLRPRVFQEAVVDERQYIWPWLISLLNSFHPHEEDLSSISATPLPEEFELQGFLALRPSFRNLDFSKGHQGITGDKEGQQRRIRQQRLISIGKWIADNQPRLIQCENEVGKLLFITEIPELILEDPSEAKENLILQETSVIESLAADGSPGLKSVLSTSRNLSNNCDTGEKPVVTFKENIKTREVNRDQGRSFPPKEVRRDYSKGITVTKNDGKKDNNKRKTETKKCTLEKLQETGKQNVAVQVKSQTELRKTPVSEARKTPVTQTPTQASNSQFIPIHHPGAFPPLPSRPGFPPPTYVIPPPVAFSMGSGYTFPAGVSVPGTFLQPTAHSPAGNQVQAGKQSHIPYSQQRPSGPGPMNQGPQQSQPPSQQPLTSLPAQPTAQSTSQLQVQALTQQQQSPTKAVPALGKSPPHHSGFQQYQQADASKQLWNPPQVQGPLGKIMPVKQPYYLQTQDPIKLFEPSLQPPVMQQQPLEKKMKPFPMEPYNHNPSEVKVPEFYWDSSYSMADNRSVMAQQANIDRRGKRSPGVFRPEQDPVPRMPFEKSLLEKPSELMSHSSSFLSLTGFSLNQERYPNNSMFNEVYGKNLTSSSKAELSPSMAPQETSLYSLFEGTPWSPSLPASSDHSTPASQSPHSSNPSSLPSSPPTHNHNSVPFSNFGPIGTPDNRDRRTADRWKTDKPAMGGFGIDYLSATSSSESSWHQASTPSGTWTGHGPSMEDSSAVLMESLKSIWSSSMMHPGPSALEQLLMQQKQKQQRGQGTMNPPH |  |  |  | binds weakly | binds

No constants are given. Whether binding was seen depends on the method and setting. Binding seen in cells or lysates may run through a third protein. These calls come from enrichment with a bait or labelling near it, and not all partners need be listed. For some assays here: A no says only that the protein was not detected with the bait. For some assays here: Where a sequence is shown, tags or fusion partners need not be part of it.
